No constants are given. Whether binding was seen depends on the method and setting. Binding seen in cells or lysates may run through a third protein. Some results given as binding are weak or reduced against the parent protein; the word gives no strength.
Target: T1, art5^K364R (S. cerevisiae) (UniProt P53244)
T1 sequence: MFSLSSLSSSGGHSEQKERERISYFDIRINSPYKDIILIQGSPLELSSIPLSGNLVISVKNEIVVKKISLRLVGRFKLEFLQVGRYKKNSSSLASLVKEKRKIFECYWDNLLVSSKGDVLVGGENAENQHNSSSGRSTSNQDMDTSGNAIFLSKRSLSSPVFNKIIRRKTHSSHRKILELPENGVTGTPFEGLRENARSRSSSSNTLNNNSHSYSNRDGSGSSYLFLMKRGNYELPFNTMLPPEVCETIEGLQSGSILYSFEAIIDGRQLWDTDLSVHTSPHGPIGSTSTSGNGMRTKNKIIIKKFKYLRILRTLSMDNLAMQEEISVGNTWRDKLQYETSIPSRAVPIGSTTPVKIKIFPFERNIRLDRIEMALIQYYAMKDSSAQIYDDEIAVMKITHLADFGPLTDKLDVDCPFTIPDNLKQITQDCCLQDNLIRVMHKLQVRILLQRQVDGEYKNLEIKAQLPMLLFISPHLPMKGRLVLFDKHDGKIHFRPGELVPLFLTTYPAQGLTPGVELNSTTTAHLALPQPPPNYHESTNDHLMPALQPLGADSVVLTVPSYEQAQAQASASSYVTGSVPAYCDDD
Assay: co-IP; yeast lysate in IP buffer with 1% Triton X-100; ART protein bound to FLAG-M2 affinity gel 4 hr at 4°C; blot for Rsp5

By UniProt entry, the sequences of proteins in these tests, tags left out.
UniProt P39940: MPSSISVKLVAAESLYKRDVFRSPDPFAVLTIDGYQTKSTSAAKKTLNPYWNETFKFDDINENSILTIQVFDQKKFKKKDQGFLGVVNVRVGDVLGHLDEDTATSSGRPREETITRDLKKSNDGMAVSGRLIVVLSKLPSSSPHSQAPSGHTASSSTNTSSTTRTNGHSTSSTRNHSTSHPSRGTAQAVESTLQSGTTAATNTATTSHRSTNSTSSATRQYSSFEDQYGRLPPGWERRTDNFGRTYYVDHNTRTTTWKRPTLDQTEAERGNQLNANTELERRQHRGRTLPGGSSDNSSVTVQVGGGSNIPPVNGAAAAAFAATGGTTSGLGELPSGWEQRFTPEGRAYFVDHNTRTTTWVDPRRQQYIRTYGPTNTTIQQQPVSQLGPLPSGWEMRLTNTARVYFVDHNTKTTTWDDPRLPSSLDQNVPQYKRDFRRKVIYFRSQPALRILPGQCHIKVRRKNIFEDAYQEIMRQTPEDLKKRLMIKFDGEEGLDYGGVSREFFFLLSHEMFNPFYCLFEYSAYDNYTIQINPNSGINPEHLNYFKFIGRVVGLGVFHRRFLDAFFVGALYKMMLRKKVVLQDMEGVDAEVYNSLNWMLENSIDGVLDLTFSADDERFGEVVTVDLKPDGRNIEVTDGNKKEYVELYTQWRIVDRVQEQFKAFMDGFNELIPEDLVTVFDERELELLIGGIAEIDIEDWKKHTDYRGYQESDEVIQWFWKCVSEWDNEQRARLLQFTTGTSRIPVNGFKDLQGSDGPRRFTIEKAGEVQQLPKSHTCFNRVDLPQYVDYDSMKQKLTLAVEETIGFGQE

binding: binds
Substance: Rsp5 (from UniProt P39940 1-809) (enzyme)

— article PMC9282857
